## Library screen at single concentrations

Source: ChEMBL document CHEMBL3988442, “University of Dundee, Small-Polar-MMV Screening Library” (2021).

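Phenotypic screen: M. tuberculosis growth, glucose 7H9 medium, 3 days; the read-out is not stated. Tested at 50 µM. Direction is inferred from retests: higher values go with more growth inhibition. Size under these conditions: about 69,000 compounds, about 760 of them at 50% or above in at least one test.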

Each number is a percent effect as filed. The controls that fix the scale are not given in the record; negative values are as filed. This is an unselected part of the compounds tested. Two or more numbers in one place are separate tests of the same structure; such repeats can differ widely.

structure	effect
CN(Cc1ccccc1)CC(O)Cn1cnc2c(cnn2C)c1=O (stereo not shown)	5.383
CC(C)CN1CCC2(Cc3ccccc3NC2=O)C1 (stereo not shown)	11.91
CCNC(c1cccnc1)c1ccc(F)cc1F (stereo not shown)	5.244
O=S(=O)(c1cn[nH]c1)N1CCC(O)(CN2CCC(F)(F)CC2)C1 (stereo not shown)	-3.57
CCC(C)N1C(=O)c2ccc(C(=O)NCCc3c[nH]cn3)cc2C1=O (stereo not shown)	-0.1225
Cc1cc(C)nc(NC2CCc3nc(C)nn3C2)n1 (stereo not shown)	-4.019
CC(C)(C)c1cn2nc(N3CCCCC3Cn3cncn3)sc2n1 (stereo not shown)	-32.92
O=C(CC1CC1)N1CCCC2(CCC(=O)N2CC2CC2)CC1 (stereo not shown)	4.654
COc1ccc(-c2n[nH]cc2CN(C)Cc2nonc2C)c(F)c1	19.21
Cl.NC(=O)COc1ccc(CNCc2ccc(F)cc2)cc1	-22.89
CCc1nc(CNC2CCN(c3ccc(OC)cc3)CC2)cs1	-4.063
Cc1cc(C)n(C2CN(CCc3ccncc3)C2)n1	-6.8
CCOCC(=O)N1CCc2nc(C)nc(NC(C)C)c2CC1	-38.65
COC(=O)c1ccc(OC)c(CN2CCN(CC(C)C)C(=O)C2C)c1 (stereo not shown)	1.915
O=C(c1cccc2c1OCCO2)N1CCCC1Cn1cccn1 (stereo not shown)	-4.205
CCc1n[nH]c(C2CN(Cc3ncc(CC)o3)CCO2)n1 (stereo not shown)	-27.81
Cc1ccc(C(=O)N2CC3(CCNCC3)c3cc(Cl)ccc32)cn1.O=C(O)C(F)(F)F.O=C(O)C(F)(F)F	-0.7475
Cn1nccc1CNC(=O)C1CCCCC1	30.98
CCN(CC)CCCNc1nccc(-c2cn(C)nc2C)n1	-2.101
COc1ncccc1NC(=O)N(Cc1ccc(C)o1)C1CC1	14.92
CCN(Cc1nc(COC)no1)C(=O)CCn1c(C)cc2ccccc21	20.3
c1ccc(-c2nc(CN3CCc4c(ncn4C4CC4)C3)cs2)cc1	13.52
[H][C@@]12C[C@H](C(=O)N3CCOCC3)[C@@]([H])(CN(S(=O)(=O)CC(C)C)C1)O2	-32.35
OCCN1CCN(CC(O)c2ccc(OC(F)(F)F)cc2)CC1 (stereo not shown)	4.346
O=C(O)C(F)(F)F.O=C(O)C(F)(F)F.[H][C@@]12CN(Cc3ccccc3)C[C@]1([H])C(=O)N(CCN1CCCC1)C2	10.35
CCC1c2ccsc2CCN1C(=O)NCc1ccnc(N(C)C)c1 (stereo not shown)	27.83
Cc1ccc(Oc2ncccc2C(=O)O)c(C)c1	6.242
NS(=O)(=O)N1CCC(C(=O)Nc2cccc(OC(F)F)c2)CC1	-0.925
N#Cc1ccccc1N1CCCN(C(=O)CCc2nccs2)CC1	-0.7752
[H][C@@]12C[C@@H](Oc3cccnc3)CN1CCN(C(=O)c1cnccn1)C2	6.791
CN(Cc1ccc(-n2cccn2)cc1)CC1CCCN1c1cccnn1 (stereo not shown)	38.14
O=C(O)C(F)(F)F.[H][C@@]12CCN(c3ccc(C)nn3)C[C@]1([H])O[C@@H](C(=O)NCc1ccco1)C2	-2.929
CCN1Cc2nc(OC)c(CNC(=O)C3CCCN(C)C3)cc2C1=O (stereo not shown)	-30.25
Cc1cc2cccc(C(=O)N3CCOC4(CNCCOC4)C3)c2o1 (stereo not shown)	-37.12
CN1CC(Oc2ccc(Cl)cc2)=NC(SCC(=O)Nc2ccccc2)=N1	-0.7002
Cc1cccc(N2CCC3(CCCN(C(=O)c4cccnc4)C3)C2)n1.O=C(O)C(F)(F)F.O=C(O)C(F)(F)F (stereo not shown)	-31.17
Cc1cccc(NC(=O)N2CCCn3cnc(CN4CCCC4)c3C2)c1.O=C(O)C(F)(F)F	-9.71
Cc1noc(C)c1-c1n[nH]c2c1CN(S(=O)(=O)c1cccs1)CC2	1.123 & 26.26
Cc1cnccc1NCCn1ccnc1C1CCCCC1	47.45
COCCOCC(=O)Nc1cccc(CN(C)C(C)=O)c1	-32.25
COCC(=O)N1CCc2c(nnn2C)C1COCCN1CCCC1.O=C(O)C(F)(F)F (stereo not shown)	-1.808 & 11.59
COC(=O)c1ccc(N2CCN(CCC#N)C(C)C2)cc1 (stereo not shown)	-24.77
COc1ccc(CN2CCN(C(=O)c3ccc(C)n3C)CC2)cc1	3.749
COCCC(=O)N1CCC2(CCN(Cc3cccc(F)c3)CC2)C1.O=C(O)C(F)(F)F	-4.587
Cc1cc(C)c(CNC(=O)N(C)Cc2sccc2C)c(=O)[nH]1	3.159
O=C(c1sccc1C1CC1)N1CCN(c2cnccn2)CC1	-13.1
CCn1nc(C)c2c1cnn2CCNS(C)(=O)=O	-0.1416
Cc1ccc(N2CCN(C)c3ncccc3C2)nn1.O=C(O)C(F)(F)F	32.84 & 65.07
COc1cccc(CNc2c(C)nn(C(C)C)c2C)c1.Cl	24.85
CCn1nc(CC(C)C)cc1C(=O)NCCCN1CCOCC1	6.737
O=C(c1ccnn1-c1ccc2ccccn12)N1CCOCC1	20.23
CN(C)c1cc(C2CCCN(S(=O)(=O)c3cn[nH]c3)C2)ccn1 (stereo not shown)	-10.69
CNc1nc2c(s1)C(c1c(F)cccc1Cl)CC(=O)N2 (stereo not shown)	-1.489 & -0.6194
CC(C)(C)C(=O)N1CCC(c2noc(C3CCC(=O)N3)n2)CC1 (stereo not shown)	-35.47
[H][C@@]12CC[C@@]([H])(C1)N(CC(=O)N1CCN(c3ccc(C)cc3)C(=O)C1)C2	-8.642 & -6.383
CN(C(=O)COc1ccc(-c2noc(C3CCCO3)n2)cc1)C1CC1 (stereo not shown)	1.003
Cc1cc(C(=O)N2CCCC3(CNC(=O)O3)C2)c2c(C)nn(C)c2n1 (stereo not shown)	-11.59 & -7.5
O=C(O)C(F)(F)F.[H][C@@]12CCN(C3CCOCC3)C[C@@]1([H])[C@H](C(=O)NC1CC1)CCO2	7.904
COC(=O)c1ccc(N2CCN(C(=O)c3ccc(=O)n(C)c3)CC2)cc1	-9.543
Cc1ccsc1CNC(=O)NC1CCCc2c1cnn2CCO (stereo not shown)	10.9
CSc1cccc(CN2CCn3nc(CNC(C)=O)cc3C2)c1	15.48
Cn1cc(C2COC3(CCN(C(=O)c4ccsc4)CC3)C2)cn1 (stereo not shown)	-7.195
CCC(=O)N1CCC2(CC1)C(=O)N(Cc1cccnc1)CCN2C.O=C(O)C(F)(F)F.O=C(O)C(F)(F)F	-17.63
c1cc(CNCc2ccnc(N3CCCC3)c2)c2c(c1)OCCCO2	9.225
Cc1nc(CN(C)C2CCN(CCc3cnn(C)c3)C2)no1 (stereo not shown)	-35.49
Cn1c(C2CC2)nc2cc(NC(=O)C3(O)CCCC3)ccc21	36.47
CCC(C)(C)NC(=O)Cn1nc(C)nc1-c1ccccc1	-1.037
CC(c1ccco1)N(C)Cc1nc2c(cnn2C)c(=O)[nH]1 (stereo not shown)	-15.81
[H][C@@]12CS(=O)(=O)C[C@]1([H])N(C(=O)CCn1cc(C)cn1)CCN2C(=O)C1CC1	-25.27
CN(C)c1cc(C(=O)N2CCN(c3nccs3)CC2)ccn1	15.3
Cc1ccc(-c2cc(CN3CCCC(Cn4cncn4)C3)on2)cc1 (stereo not shown)	22.35
CCN1CCOCC2(CCCN(c3nncs3)C2)C1 (stereo not shown)	17.83